Reference: patent US20120178796A1, “SPLICE VARIANTS” (priority 2009, published 2012)

Experiment: Protein half-life by time course after cycloheximide inhibition of protein synthesis
Type: cell-based, human
Conditions: after cycloheximide (CHX); HCT116 cells

B1: SIRT1 Δ8: SIRT1 splice variant protein lacking residues 452-637 encoded by exon 8, about 95 kDa (protein)
chain: ADEAALALQPGGSPSAAGADREAASSPAGEPLRKRPRRDGPGLERSPGEPGGAAPEREVPAAARGCPGAAAAALWREAEAEAAAAGGEQEAQATAAAGEGDNGPGLQGPSREPPLADNLYDEDDDDEGEEEEEAAAAAIGYRDNLLFGDEIITNGFHSCESDEEDRASHASSSDWTPRPRIGPYTFVQQHLMIGTDPRTILKDLLPETIPPPELDDMTLWQIVINILSEPPKRKKRKDINTIEDAVKLLQECKKIIVLTGAGVSVSCGIPDFRSRDGIYARLAVDFPDLPDPQAMFDIEYFRKDPRPFFKFAKEIYPGQFQPSLCHKFIALSDKEGKLLRNYTQNIDTLEQVAGIQRIIQCHGSFATASCLICKYKVDCEAVRGDIFNQVVPRCPRCPADEPLAIMKPEIVFFGENLPEQFHRAMKYDKDEVDLLIVIGSSLKVRPVALIPSNQYLFLPPNRYIFHGAEVYSDSEDDVLSSSSCGSNSDSGTCQSPSLEEPMEDESEIEEFYNGLEDEPDVPERAGGAGFGTDGDDQEAINEAISVKQEVTDMNYPSNKS
modifications: left off: small tags and cut ends
notes: SIRT1 splice variant protein lacking residues 452-637 encoded by exon 8, about 95 kDa
  protein half-life: around 2 hr
